{"source": "patent US20230276803A1", "about": "“A PESTICIDALLY ACTIVE MIXTURE COMPRISING THIETANYLOXY COMPOUND, OXIDES OR SALTS THEREOF” (PI INDUSTRIES LTD., priority 2020, published 2023)", "key": {"Spodoptera litura": {"system": "Spodoptera litura", "test": "Diet incorporation method against Spodoptera litura (Example B)", "type": "in vivo", "details": "1 ppm; 96 h", "from_the_text": "(§1) In which E represents the expected percentage of inhibition of the pests for the combination of two insecticides or one insecticide and one fungicide at defined doses (for example equal to x and y respectively), x is the percentage of inhibition observed for the pest/disease by the compound (1) at a given dose (equal to x), y is the percentage of inhibition observed for the pest/disease by the compound (2) or (3) at a defined dose (equal to y). When the percentage of inhibition observed for the combination is greater than E, there is a synergistic effect.\nThe diet incorporation method was used, in which semi-synthetic diet was incorporated into the test solution consisting either of the single compound or respective compound combinations, when the temperature was approximately 50° C. in the bioassay containers, then stirred thoroughly for proper mixing and allowed to cool for 30 min. The solidified diet was cut into equal pieces, and then each piece was transferred into one cell of the bio-assay trays. A single starved third instar larva was released into each of these cells of the bio-assay trays and the tray was covered with a lid. […] Observations on dead, moribund and live larvae were recorded 96 h after the release. Percent mortality was calculated by combining dead and moribund larvae and comparing the result with the one of the untreated control. […]"}, "Helicoverpa armigera": {"system": "Helicoverpa armigera", "test": "Diet incorporation method against Helicoverpa armigera (Example A)", "type": "in vivo", "details": "0.1 ppm; 96 h", "from_the_text": "as §1\nThe diet incorporation method was used, in which semi-synthetic diet was incorporated into the test solutions consisting either of the single compounds or respective compound combinations, when the temperature was approximately 50° C. in the bio-assay containers, then stirred thoroughly for proper mixing and allowed to cool for 30 min. The solidified diet was cut into equal pieces, and then each piece was transferred into one cell of a bio-assay tray. A single starved third instar larva was released into each of these cells of the bio-assay trays and the tray was covered with a lid. […] Observations on dead, moribund and live larvae were recorded 96 h after the release of the larvae. Percent mortality was calculated by combining dead and moribund larvae and comparing the result to the one of the untreated control. […]"}}, "note": "At least one read-out could not be matched to a standard name with certainty."}
{"smiles": "Cc1cc(Cl)cc(C(=O)NC(C)(C)C)c1NC(=O)c1cc(OC2CS(=O)(=O)C2)nn1-c1ncccc1Cl", "note": "[Compound (I-1), N-(2-(tert-butylcarbamoyl)-4-chloro-6-methylphenyl)-1-(3-chloropyridin-2-yl)-3-((1,1-dioxidothietan-3-yl)oxy)-1H-pyrazole-5-carboxamide]", "values": [{"measurement": "Observed Efficacy (%)", "setting": "Spodoptera litura", "value": 12.5, "unit": "%"}, {"measurement": "Observed Efficacy (%)", "setting": "Helicoverpa armigera", "value": 25, "unit": "%"}]}
